For the test, the target named is T1, CLN7 (human (endogenous in SH-SY5Y)) (UniProt Q8NHS3).
T1 sequence: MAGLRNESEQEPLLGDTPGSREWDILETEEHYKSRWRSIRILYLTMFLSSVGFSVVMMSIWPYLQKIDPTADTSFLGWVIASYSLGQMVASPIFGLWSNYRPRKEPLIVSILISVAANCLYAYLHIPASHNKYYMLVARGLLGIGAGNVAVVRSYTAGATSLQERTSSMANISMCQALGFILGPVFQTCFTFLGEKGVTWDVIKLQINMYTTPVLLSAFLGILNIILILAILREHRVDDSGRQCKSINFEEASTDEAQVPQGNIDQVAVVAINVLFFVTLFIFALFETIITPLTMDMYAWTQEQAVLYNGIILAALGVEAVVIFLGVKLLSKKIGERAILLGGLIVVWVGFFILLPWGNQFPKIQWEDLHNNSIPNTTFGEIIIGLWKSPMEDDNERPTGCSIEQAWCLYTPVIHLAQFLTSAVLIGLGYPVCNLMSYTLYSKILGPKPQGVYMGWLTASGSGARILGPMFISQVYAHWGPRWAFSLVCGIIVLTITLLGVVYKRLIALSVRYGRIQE
As to the kind of experiment: affinity purification with mass spectrometry; endogenous CLN7 immunoprecipitated from 2.5 mg SH-SY5Y lysate with a polyclonal anti-CLN7 antibody raised against L9 (351-421aa, Proteintech) on G-sepharose beads; IgG as non-specific binding control; 4 independent replicates; cells under steady state culture conditions.

These are yes or no findings as the source states them, for the method shown. In cells and extracts the contact can be indirect. A yes stands for co-enrichment or nearness to the bait. Other partners may have been found.

Consider three molecules from PMC12579238.

B1: TBL3 (protein, UniProt Q12788 1-808)
chain: MAETAAGVGRFKTNYAVERKIEPFYKGGKAQLDQTGQHLFCVCGTRVNILEVASGAVLRSLEQEDQEDITAFDLSPDNEVLVTASRALLLAQWAWQEGSVTRLWKAIHTAPVATMAFDPTSTLLATGGCDGAVRVWDIVRHYGTHHFRGSPGVVHLVAFHPDPTRLLLFSSATDAAIRVWSLQDRSCLAVLTAHYSAVTSLAFSADGHTMLSSGRDKICIIWDLQSCQATRTVPVFESVEAAVLLPEEPVSQLGVKSPGLYFLTAGDQGTLRVWEAASGQCVYTQAQPPGPGQELTHCTLAHTAGVVLTATADHNLLLYEARSLRLQKQFAGYSEEVLDVRFLGPEDSHVVVASNSPCLKVFELQTSACQILHGHTDIVLALDVFRKGWLFASCAKDQSVRIWRMNKAGQVMCVAQGSGHTHSVGTVCCSRLKESFLVTGSQDCTVKLWPLPKALLSKNTAPDNGPILLQAQTTQRCHDKDINSVAIAPNDKLLATGSQDRTAKLWALPQCQLLGVFSGHRRGLWCVQFSPMDQVLATASADGTIKLWALQDFSCLKTFEGHDASVLKVAFVSRGTQLLSSGSDGLVKLWTIKNNECVRTLDAHEDKVWGLHCSRLDDHALTGASDSRVILWKDVTEAEQAEEQARQEEQVVRQQELDNLLHEKRYLRALGLAISLDRPHTVLTVIQAIRRDPEACEKLEATMLRLRRDQKEALLRFCVTWNTNSRHCHEAQAVLGVLLRREAPEELLAYEGVRAALEALLPYTERHFQRLSRTLQAAAFLDFLWHNMKLPVPAAAPTPWETHKGALP
For the molecule B1, the binding entry is “binds”.

B2: TOP3B (protein, UniProt O95985 1-862)
chain: MKTVLMVAEKPSLAQSIAKILSRGSLSSHKGLNGACSVHEYTGTFAGQPVRFKMTSVCGHVMTLDFLGKYNKWDKVDPAELFSQAPTEKKEANPKLNMVKFLQVEGRGCDYIVLWLDCDKEGENICFEVLDAVLPVMNKAHGGEKTVFRARFSSITDTDICNAMACLGEPDHNEALSVDARQELDLRIGCAFTRFQTKYFQGKYGDLDSSLISFGPCQTPTLGFCVERHDKIQSFKPETYWVLQAKVNTDKDRSLLLDWDRVRVFDREIAQMFLNMTKLEKEAQVEATSRKEKAKQRPLALNTVEMLRVASSSLGMGPQHAMQTAERLYTQGYISYPRTETTHYPENFDLKGSLRQQANHPYWADTVKRLLAEGINRPRKGHDAGDHPPITPMKSATEAELGGDAWRLYEYITRHFIATVSHDCKYLQSTISFRIGPELFTCSGKTVLSPGFTEVMPWQSVPLEESLPTCQRGDAFPVGEVKMLEKQTNPPDYLTEAELITLMEKHGIGTDASIPVHINNICQRNYVTVESGRRLKPTNLGIVLVHGYYKIDAELVLPTIRSAVEKQLNLIAQGKADYRQVLGHTLDVFKRKFHYFVDSIAGMDELMEVSFSPLAATGKPLSRCGKCHRFMKYIQAKPSRLHCSHCDETYTLPQNGTIKLYKELRCPLDDFELVLWSSGSRGKSYPLCPYCYNHPPFRDMKKGMGCNECTHPSCQHSLSMLGIGQCVECESGVLVLDPTSGPKWKVACNKCNVVAHCFENAHRVRVSADTCSVCEAALLDVDFNKAKSPLPGDETQHMGCVFCDPVFQELVELKHAASCHPMHRGGPGRRQGRGRGRARRPPGKPNPRRPKDKMSALAAYFV
Turning to B2, the binding entry was “binds”.

B3: SPATA5L1 (protein, UniProt Q9BVQ7 1-753)
chain: MAPDSDPFPEGPLLKLLPLDARDRGTQRCRLGPAALHALGARLGSAVKISLPDGGSCLCTAWPRRDGADGFVQLDPLCASPGAAVGASRSRRSLSLNRLLLVPCPPLRRVAVWPVLRERAGAPGARNTAAVLEAAQELLRNRPISLGHVVVAPPGAPGLVAALHIVGGTPSPDPAGLVTPRTRVSLGGEPPSEAQPQPEVPLGGLSEAADSLRELLRLPLRYPRALTALGLAVPRGVLLAGPPGVGKTQLVRAVAREAGAELLAVSAPALQGSRPGETEENVRRVFQRARELASRGPSLLFLDEMDALCPQRGSRAPESRVVAQVLTLLDGASGDREVVVVGATNRPDALDPALRRPGRFDREVVIGTPTLKQRKEILQVITSKMPISSHVDLGLLAEMTVGYVGADLTALCREAAMHALLHSEKNQDNPVIDEIDFLEAFKNIQPSSFRSVIGLMDIKPVDWEEIGGLEDVKLKLKQSIEWPLKFPWEFVRMGLTQPKGVLLYGPPGCAKTTLVRALATSCHCSFVSVSGADLFSPFVGDSEKVLSQIFRQARASTPAILFLDEIDSILGARSASKTGCDVQERVLSVLLNELDGVGLKTIERRGSKSSQQEFQEVFNRSVMIIAATNRPDVLDTALLRPGRLDKIIYIPPPDHKGRLSILKVCTKTMPIGPDVSLENLAAETCFFSGADLRNLCTEAALLALQENGLDATTVKQEHFLKSLKTVKPSLSCKDLALYENLFKKEGFSNVEGI
As to B3, the binding entry is “binds”.
